# Measured values taken from the supplement of paper PMC5407854, “Inhibitor of ppGalNAc-T3-mediated O-glycosylation blocks cancer cell invasiveness and lowers FGF23 levels” (eLife, 2017).
# Several values for one entry are separate records, joined by “and”; a condition that tells them apart may be missing. Equal entries are not always repeated. ± gives the standard deviation of the averaged measurements. The full ranking holds about 1,700 compounds; the median of “T2 sensor activation Q score (MG/GFP ratio z-score vs DMSO controls)” is about 0.3, and the highest 2% start at about 1.9. The list shows a part of the results.
# Test system: ppGalNAc-T2 sensor
# Assay: T2 sensor activation Q score (MG/GFP ratio z-score vs DMSO controls) (SD units); higher = more sensor activation (inhibition of ppGalNAc-T2 glycosylation)
# Conditions: HEK293 sensor cells; 10 µM; 6 h
# Description: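 Cells were treated with compound at 10 uM for 6 h, then MG/GFP ratio was read by flow cytometry (10,000 cells per well, duplicate wells). Q = (R - R_neg)/SD_neg relative to DMSO vehicle controls; the signal rises when the glycosyltransferase is inhibited.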
row,Compound,T2 sensor activation Q score
1,c1ccc2[nH]c(CCCCCc3nc4ccccc4[nH]3)nc2c1,1.7
2,C(=N\Nc1nnn(Cc2ccccc2)n1)/c1ccccc1,0.5
3,CCCCOc1ccc(N=Nc2ccc(N)nc2N)cn1,1.8
4,O=C1c2cc([N+](=O)[O-])ccc2-c2cc(Br)c(N=C(NO)C(F)(F)F)cc21,-1.2
5,NC(=O)SCC(=O)Nc1ccccc1C(=O)O,0.8
6,CN(C)C(=S)/N=c1\ssc(=S)n1Cc1ccco1,0.75
7,CCN(CC)C(=O)Cn1ccc(NC(C)=O)nc1=O,0.5
8,CC1=CC(C)(C)Nc2ccc(Cc3ccc4c(c3)C(C)=CC(C)(C)N4)cc21,0.65
9,Cn1c([N+](=O)[O-])cnc1N1CCN(c2nncs2)C1=O,-1.65
10,COc1ccc2c(c1)CCCN2C(N)=Nc1ccc(Cl)cc1,1.25
11,O=Cc1ccc(O)c2ncccc12,-0.25
12,CN(C)CCCn1c2c3ccccc3ccc2c2oc(=O)c3ccccc3c21,-0.8
13,Cc1cccnc1NC(=S)Nc1ncccc1C,0.9
14,OCCN1CCSC1=S,0.75
15,CCCNC(=O)c1ccc(Cl)cc1Cl,-1.9
16,Cc1cc(N2CCN(C)CC2)n2nc(-c3ccc(Cl)cc3)nc2n1,-0.1
17,Cn1c(=O)c2[nH]c(N3CCCCC3)nc2n(C)c1=O,2.15
18,O=C(O)C1OCC2(CO1)COC(C(=O)O)OC2 (stereo not drawn),0.7
19,O=C(O)c1ccccc1C(=O)Nc1ccccc1[N+](=O)[O-],1.35
20,CC(C)COc1nc2c(c(=O)n(C)c(=O)n2C)n1C,0.8
21,COc1ccc(N/C=C2\C(=O)CCc3c2oc2cc(Cl)c(O)c(Cl)c32)cc1,0.75
22,COc1cc(N=Nc2ccccc2C(=O)O)ccc1O,1.55
23,NC(=O)CCC(C(=O)O)N1C(=O)C2C3CCC(C3)C2C1=O (stereo not drawn),-0.75
24,CCOC(=O)c1cc[nH]c1CC(=O)NC,-0.4
25,O=C(CC1(O)CCCCC1)OC1CCCC1,-0.05
26,O=C(O)c1cc2ccccc2c2cc(Br)ccc12,-0.75

row,Compound,T2 sensor activation Q score
1,c1ccc2cc(OCCOCCOc3ccc4ccccc4c3)ccc2c1,1.6
2,CCOC(=O)c1c(O)cc(C)[nH]c1=O,0
3,Nc1ccccc1-c1nc2ccncc2[nH]1,0.7
4,Cc1cc(=O)c2c(=O)[nH][nH]c2[nH]1,-0.75
5,CC(=O)Nc1ccc(S(=O)(=O)N/N=c2/sc3ccccc3n2C)cc1N,-0.6
6,c1ccc(-c2cn3ccccc3n2)cc1,-0.6
7,Oc1ccc(-c2nc3ccccc3s2)c(O)c1,0.2
8,O=C(Nc1ccccc1)Oc1ccc[nH]c1=O,0.1
9,O=C(O)c1ccc(N2CCCCC2)cc1O,-0.25
10,CC(=O)CC[N+](C)(C)C,-1.1
11,CN(Cc1cnc2nc(N)nc(N)c2n1)c1ccc(C(=O)N[C@@H](CCC(=O)O)C(=O)O)cc1,-1.65
12,CCCCCCCCC(=O)c1c(OC)oc(C=O)cc1=O,0.5
13,CC1=CC(C)(C(Cl)(Cl)Cl)C(C)=C/C1=N/O (stereo not drawn),1.25
14,CC(=O)NCCCOc1ccc([N+](=O)[O-])cc1Cl,0.4
15,C(COC1CC2CC1C1C2CC2OC21)OC1CC2CC1C1C2CC2OC21 (stereo not drawn),0.15
16,C=CCOc1ccc(S(C)(=O)=O)cc1,1.1
17,[O-][n+]1nc2ccccc2c2ccccc21,-1.75
18,COC1=C(N)C(=O)c2nc(-c3nc(C(=O)O)c(C)c(-c4ccc(OC)c(OC)c4O)c3N)ccc2C1=O,1 and 1.6
19,OCc1nc2nc(Cl)c(Cl)nc2[nH]1,0.4
20,CCC1(CC)C(=O)NC(=S)N=C1N,1.7
21,O=C(Nc1cccc([N+](=O)[O-])c1)c1cccc(C(=O)Nc2cccc([N+](=O)[O-])c2)c1,-0.8
22,Cc1ccc(N=Nc2ccc(N)cc2C)c(S(N)(=O)=O)c1,1.5
23,Cc1nc2ccccc2nc1NS(=O)(=O)c1ccc(N)cc1,1.35
24,Cn1ncc2c(Nc3ccccc3Cl)nc(Cl)nc21,1.35
25,O=C(Nc1cccc2ccccc12)c1cc2c(cc1Br)OCO2,0.45
26,O=c1cccc2cc(O)c(O)c(O)c2c1O,2.35

row,Compound,T2 sensor activation Q score
1,Cc1oc2c(c(C)nn2-c2ccccc2)c(=O)c1Cl,0.9
2,CC(=O)Oc1c(C)c(OC(C)=O)c2c(c1C(C)=O)OC1CC(=O)C(C(C)=O)=C(O)C21C (stereo not drawn),-1.8
3,CC(C)NC(=O)Nc1cccc(Cl)c1,0
4,Cc1c(Cl)cccc1Nc1ncccc1C(=O)OCC(O)CO (stereo not drawn),-0.65
5,O=C(Nc1cccc(Cl)c1)Nn1cnnc1,0.65
6,O=C1C2C3C=CC(O3)C2C(=O)N1Nc1ccccc1 (stereo not drawn),0.25
7,Cc1nc(Nc2ncc(C(=O)Nc3c(C)cccc3Cl)s2)cc(N2CCN(CCO)CC2)n1,-1.8
8,FC(F)(F)c1cccc(-c2nc3nc(Cl)c(Cl)nc3[nH]2)c1,-0.2
9,Cc1ccc(C2C=CC(C#N)=CN2Cc2ccccc2)cc1 (stereo not drawn),1.2
10,COc1cc([C@@H]2c3cc4c(cc3[C@@H](O[C@@H]3O[C@@H]5CO[C@@H](c6cccs6)O[C@H]5[C@H](O)[C@H]3O)[C@H]3COC(=O)[C@H]23)OCO4)cc(OC)c1O,0.9 ± 1.5
11,CCOC(=O)C(=O)Cc1nc2ccccc2s1,0.1
12,CCOc1ccc(NC(=O)C2CCCN(C)C2)cc1 (stereo not drawn),1
13,NC(=O)c1ccc(Cl)c2ccccc12,-0.85
14,c1ccc(Sc2ncnc3ccccc23)cc1,1.2
15,CN(C)C(=O)c1cccc(COc2ccc(N3C(N)=NC(N)=NC3(C)C)cc2Cl)c1,-0.65
16,Nc1ccn([C@@H]2O[C@H](CO)[C@@H](O)[C@@H]2O)c(=O)n1,0.45
17,O=C(Nc1ccccc1)Nc1ccccn1,-1.7
18,COC(=O)C1CC(O)C(O)C(O)C1 (stereo not drawn),-0.4
19,CCCCc1c(C)[nH]c(=S)[nH]c1=O,-0.75
20,CC(=O)Nc1nc(C)c(CCCOc2ccc([N+](=O)[O-])cc2)c(=O)[nH]1,0.3
21,O=C1COc2cccnc2N1,1.65
22,CC(=O)CC(=O)Nc1ccc2ccccc2c1,0.2
23,CN1CN(C)C(c2ccncc2)=C1c1ccncc1,0.4
24,Cc1cc(-n2cnc3c(=O)[nH]cnc32)ccc1N,1.35
25,CCC1(C(=O)OC)CCc2c(cc(OC)c3ccccc23)C1=O (stereo not drawn),0.55
26,Cc1cc(/C=C2\SC(=S)NC2=O)cc(C)c1O,0.35

row,Compound,T2 sensor activation Q score
1,Cc1nnc2nc(N)[nH]n2c1=O,0.6
2,O=C(Nc1ccc2ccccc2c1)c1ccc(Cl)cc1Cl,0.05
3,CS(=O)(=O)Oc1ccc(Br)c2cccnc12,0.05
4,CCOC(=O)Nc1c2ccccc2nc2ccccc12,-0.05
5,COc1ccc(N=Nc2ccc(N)nc2N)cc1,1.2
6,CCOC(=O)C1CC(=O)c2cc(OC)c(OC)cc2C1 (stereo not drawn),1.2
7,COc1ccc(Cc2nnc(SC)n2-c2ccc(F)cc2)cc1OC,0.45
8,COc1cc(C(=O)C(=O)c2ccc(O)c(OC)c2)ccc1O,1.55
9,Oc1ccc(Nc2ccc3ccccc3c2)cc1,-3.05
10,COc1ccc(C(C)=O)cc1CO/N=C1\CSCc2ccccc21,-0.75
11,COc1cc2c(=O)n3c4c(cccc4c2cc1OC)CC3,0.8
12,Nc1ncc2[nH]c(N)nc2n1,0.2
13,CCOC(=O)C1C(=O)C(=O)N(C(C)C)C1C(=O)OCC (stereo not drawn),1.8
14,Nc1ncn([C@H]2C[C@H](O)[C@@H](CO)O2)c(=O)n1,-1.2
15,O=C(NC1(N2CCOCC2)CC1)c1ccc(Cl)cc1,-1.5
16,Nc1ncnc2c1cnn2C1CCCCC1,-1.95
17,CCCCC(=O)N1CCCC(C)C1 (stereo not drawn),-0.75
18,Nc1nc2c(ncn2C2CCCC2)c(=O)[nH]1,0.3
19,CCN(CC)CCNc1c(C)cc(CO)c(Cl)c1C,0.25
20,O=C([O-])C(=O)[O-].[NH-][C@@H]1CCCC[C@H]1[NH-].[Pt+4],-0.5
21,Cc1cccc(NC2=C(C#N)C(=O)NC3(CCCC3)S2)c1,-0.9
22,c1ccc(-c2nc(-c3ccccn3)nc(-c3ccccn3)n2)nc1,-0.55
23,Nc1ccc(Cn2ccc3c4c(N)nc(N)nc4ccc32)cc1,-1.65
24,Clc1nc(Cl)nc(-c2cn(-c3ccccc3)c3ccccc23)n1,0
25,O=C(COc1cc(Cl)c(Cl)cc1Cl)Nc1ccc([N+](=O)[O-])cc1Cl,-1.2
26,Brc1ccc(N=Nc2ccc3ccccc3n2)cc1,1.9

row,Compound,T2 sensor activation Q score
1,Cc1ccc(Cl)cc1NC(=O)N(C)CCO,-0.1
2,CCCNC(=O)c1ccc(S(N)(=O)=O)cc1,-1.1
3,Cn1ccc(=Nc2ccc(NC(=O)c3ccc(N=c4ccn(C)c5ccc([N+](=O)[O-])cc45)cc3)cc2)cc1,-0.15
4,O=C1c2cccc(Sc3ccccc3)c2C(=O)c2c(Sc3ccccc3)cccc21,-0.5
5,CCOC(=O)Cc1c[nH]c(=S)[nH]c1=O,0.5
6,C/C=C1\NC(=O)[C@H]2CSSCC/C=C/[C@H](CC(=O)N[C@H](C(C)C)C(=O)N2)OC(=O)[C@H](C(C)C)NC1=O,3
7,O=C(OCC1CCC=CO1)C1CCC=CO1 (stereo not drawn),1.85
8,Cc1cc(=O)[nH]c(N/N=C2/CCCCC2C)n1 (stereo not drawn),1.35
9,CC1=CC2=C(C=O)C(=O)[C@](C)(O)[C@@H](O)C2=CO1,-0.35
10,S=C(Nc1ccccc1)Nc1nccs1,0.1
11,Cc1cc(=S)[nH]c(=S)[nH]1,1.9
12,CS(=O)(=O)Nc1nc2ccccc2[nH]1,-0.55
13,CCOC(=O)CC1(C)NC(C(=O)O)C(C)(C)S1 (stereo not drawn),1.4
14,Cc1c(N2CCCC2)cc2c(c1NC(=O)c1ccccc1Cl)C(C)(C)CC2(C)C,-1.65
15,Nc1ccc(Br)cc1Br,-0.95
16,O=c1cc(-c2cccnc2)oc2c1ccc1ccccc12,1
17,CCCCOc1ccc(Nc2cc(Cl)ccc2C(=O)O)cn1,1.2
18,CCOC(=O)C(C#N)C(=N)C1C(=O)OC2CCCCC21 (stereo not drawn),-0.45
19,NS(=O)(=O)c1ccc(NC2(C(=O)O)CCCC2)cc1,0.85
20,CN1CCc2ccccc2C1Cc1ccccc1NC(=O)c1sc2ccccc2c1Cl (stereo not drawn),-1.9
21,S=c1[nH]ccn1-c1ccccc1Cl,1
22,Nc1[nH]nc2nc(-c3ccccc3)[nH]c(=O)c12,0.05
23,CCCCSc1ncnc2[nH]ncc12,0.45
24,COCC(=O)OC1CCn2c1nc1c2C(=O)C(C)=C(NC(C)=O)C1=O (stereo not drawn),0.2

# Structures shown so far that contain a cyano group, in the order listed:
row,Compound,T2 sensor activation Q score
9,Cc1ccc(C2C=CC(C#N)=CN2Cc2ccccc2)cc1 (stereo not drawn),1.2
21,Cc1cccc(NC2=C(C#N)C(=O)NC3(CCCC3)S2)c1,-0.9
18,CCOC(=O)C(C#N)C(=N)C1C(=O)OC2CCCCC21 (stereo not drawn),-0.45
